At least one structure is not confirmed: it was looked up by name or label, or the drawing left a doubt.
Assays:
MATE1 = target: T1, MATE1 (Homo sapiens, UniProt Q96FL8); details: inhibitor 0.1 μm
T1 sequence (Q96FL8 1-570): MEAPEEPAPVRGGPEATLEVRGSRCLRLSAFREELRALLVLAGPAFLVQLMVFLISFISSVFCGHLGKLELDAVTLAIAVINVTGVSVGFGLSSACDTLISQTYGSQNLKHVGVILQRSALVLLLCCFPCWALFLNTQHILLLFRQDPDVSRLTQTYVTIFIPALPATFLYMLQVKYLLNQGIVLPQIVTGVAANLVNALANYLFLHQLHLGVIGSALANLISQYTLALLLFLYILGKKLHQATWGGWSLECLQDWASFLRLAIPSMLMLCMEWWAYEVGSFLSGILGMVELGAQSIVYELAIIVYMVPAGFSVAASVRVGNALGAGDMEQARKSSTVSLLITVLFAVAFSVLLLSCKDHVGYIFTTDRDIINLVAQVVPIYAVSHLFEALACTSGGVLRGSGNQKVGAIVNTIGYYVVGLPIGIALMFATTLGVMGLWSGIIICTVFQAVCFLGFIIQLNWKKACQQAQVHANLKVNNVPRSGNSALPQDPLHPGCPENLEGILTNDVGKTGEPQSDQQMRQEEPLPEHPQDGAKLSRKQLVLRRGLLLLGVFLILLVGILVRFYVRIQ
Method: (§1) [^14C]-Metformin (1 mM) was provided as a solid and was prepared in Hank's balanced salt solution (HBSS).
(§2) Cells were plated onto standard 24-well tissue culture plates in cell culture medium 1 to 3 days before the experiment. MATE1 and MATE2-K and control cells were incubated with butyric acid (10 mM) for 24 hours before the experiment to inhibit suppression of the transporter.

The chains behind the UniProt entries cited, without tags or fusion partners. Residues count along the entry.
UniProt Q86VL8, 1-566 isoform Q86VL8-3: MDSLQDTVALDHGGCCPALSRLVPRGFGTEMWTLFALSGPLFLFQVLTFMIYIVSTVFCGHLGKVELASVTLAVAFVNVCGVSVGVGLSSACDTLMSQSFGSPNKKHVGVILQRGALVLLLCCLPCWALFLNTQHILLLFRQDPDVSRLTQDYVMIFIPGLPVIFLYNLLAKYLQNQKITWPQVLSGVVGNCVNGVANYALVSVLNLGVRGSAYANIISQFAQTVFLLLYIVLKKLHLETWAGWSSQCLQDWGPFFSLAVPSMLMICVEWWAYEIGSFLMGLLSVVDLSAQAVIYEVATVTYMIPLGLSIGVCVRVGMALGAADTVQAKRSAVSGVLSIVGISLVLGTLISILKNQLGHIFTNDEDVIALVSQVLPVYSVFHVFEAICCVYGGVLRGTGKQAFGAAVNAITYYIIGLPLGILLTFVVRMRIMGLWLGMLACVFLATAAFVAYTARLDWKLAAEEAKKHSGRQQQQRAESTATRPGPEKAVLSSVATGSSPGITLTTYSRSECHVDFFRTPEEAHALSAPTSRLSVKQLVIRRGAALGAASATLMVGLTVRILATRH

MATE2-K = MATE2-K (Homo sapiens, UniProt Q86VL8); details: [14C]-Metformin 10 μM, inhibitor 0.3 μM
Method: as §1, §2

## CCc1nc(N)nc(N)c1-c1ccc(Cl)cc1 [Pyrimethamine]
MATE1; MATE1 HEK293 cells
  Uptake, MATE1 (Average ± SD): 62.8 ± 4.0 pmol/mg protein
MATE1; control HEK293 cells
  Uptake, Control (Average ± SD): 4.24 ± 0.72 pmol/mg protein
MATE2-K; MATE2-K HEK293 cells
  Uptake, MATE2-K (Average ± SD): 75.6 ± 16.7 pmol/mg protein
MATE2-K; control HEK293 cells
  Uptake, Control (Average ± SD): 5.59 ± 0.88 pmol/mg protein
